Some entries share one result that the patent states for a list of compounds.
Each sequence was assayed on peripheral blood mononuclear cells (PBMCs), containing antigen presenting cells (APCs) and T-cells (assay: naïve human T-cell proliferation assay (3H-thymidine incorporation, stimulation index)). Conditions: PBMCs from 2 or more donor samples.
Format: cell-based
Description: This approach has proven to be a particularly effective method and is disclosed herein as an embodiment of the invention. The method can be applied to test part of the sequence, for example a sub-set of bryodin 1 peptides such as all or some of those listed in FIG. 1; or the method may be applied to test entire sequence. In the present studies, the method has involved the testing of overlapping bryodin 1 derived peptide sequences in a scheme so as to scan and test the entire bryodin 1 sequence (including peptides representing the N-terminal pro-pepeptide). The synthetic peptides are tested for their ability to evoke a proliferative response in human T-cell cultured in vitro. Where this type of approach is conducted using naïve human T-cells taken from healthy donors, the inventors have established that in the operation of such an assay, a stimulation index equal to or greater than 2.0 is a useful measure of induced proliferation. The stimulation index is conventionally derived by division of the proliferation score (e.g. counts per minute of radioactivity if using ^3H-thymidine incorporation) measured to the test peptide by the score measured in cells not contacted with a test peptide.
The interaction between MHC, peptide and T-cell receptor (TCR) provides the structural basis for the antigen specificity of T-cell recognition. T-cell proliferation assays test the binding of peptides to MHC and the recognition of MHC/peptide complexes by the TCR. In vitro T-cell proliferation assays of the present example, involve the stimulation of peripheral blood mononuclear cells (PBMCs), containing antigen presenting cells (APCs) and T-cells. Stimulation is conducted in vitro using synthetic peptide antigens, and in some experiments whole protein antigen. Stimulated T-cell proliferation is measured using ^3H-thymidine (^3H-Thy) and the presence of incorporated ^3H-Thy assessed using scintillation counting of washed fixed cells.
Buffy coats from human blood stored for less than 12 hours were obtained from the National Blood Service (Addenbrooks Hospital, Cambridge, UK). Ficoll-paque was obtained from Amersham Pharmacia Biotech (Amersham, UK). Serum free AIM V media for the culture of primary human lymphocytes and containing L-glutamine, 50 μg/ml streptomycin, 10 μg/ml gentomycin and 0.1% human serum albumin was from Gibco-BRL (Paisley, UK). Synthetic peptides were obtained from Eurosequence (Groningen, The Netherlands) and Babraham Technix (Cambridge, UK).
Erythrocytes and leukocytes were separated from plasma and platelets by gentle centrifugation of buffy coats. The top phase (containing plasma and platelets) was removed and discarded. Erythrocytes and leukocytes were diluted 1:1 in phosphate buffered saline (PBS) before layering onto 15 ml ficoll-paque (Amersham Pharmacia, Amersham UK). Centrifugation was done according to the manufacturers recommended conditions and PBMCs were harvested from the serum+PBS/ficoll paque interface. PBMCs were mixed with PBS (1:1) and collected by centrifugation. The supernatant was removed and discarded and the PBMC pellet resuspended in 50 ml PBS. Cells were again pelleted by centrifugation and the PBS supernatant discarded. Cells were resuspended using 50 ml AIM V media and at this point counted and viability assessed using trypan blue dye exclusion. Cells were again collected by centrifugation and the supernatant discarded. Cells were resuspended for cryogenic storage at a density of 3×10^7 per ml. […]

Row | Sequence | stimulation index
1 | ATISLENNWSALSKQIQIAST [R5] | ≥ 2.0
2 | ITTLYYYTASSAASALLVLIQSTAESA [R4] | ≥ 2.0
3 | ERLQTAAGKIRENIPLGLPALDSA [R3] | ≥ 2.0
4 | RYTLLHLTNYADETISVAVDV [R1] | ≥ 2.0
5 | ATEAAKFVFKDAKKK [R2] | ≥ 2.0

Reference: patent US20060019885A1, “Modified bryodin 1 with reduced immunogenicity” (priority 2002, published 2006)
